Results are given in words; binding and its absence hold for the method and conditions named. In cells and extracts the contact can be indirect. Some results given as binding are weak or reduced against the parent protein; the word gives no strength.
Biological target: PKCθ (not stated (endogenous in PA cell lines; mouse and rat lines were used)) (UniProt Q02111)
Assay: co-IP; lysate of PA cells (IP lysis buffer, phosphorylated protease inhibitors cocktail) incubated with PKCθ antibodies bound to Protein Magnetic Beads; eluted with SDS-PAGE loading buffer; blots for IKKα, p-IKKα/β, IKBα and p-IKBα; cells treated with PMA

Protein sequences, listed by entry. Tags and fused reporters are not part of them.
UniProt Q02111: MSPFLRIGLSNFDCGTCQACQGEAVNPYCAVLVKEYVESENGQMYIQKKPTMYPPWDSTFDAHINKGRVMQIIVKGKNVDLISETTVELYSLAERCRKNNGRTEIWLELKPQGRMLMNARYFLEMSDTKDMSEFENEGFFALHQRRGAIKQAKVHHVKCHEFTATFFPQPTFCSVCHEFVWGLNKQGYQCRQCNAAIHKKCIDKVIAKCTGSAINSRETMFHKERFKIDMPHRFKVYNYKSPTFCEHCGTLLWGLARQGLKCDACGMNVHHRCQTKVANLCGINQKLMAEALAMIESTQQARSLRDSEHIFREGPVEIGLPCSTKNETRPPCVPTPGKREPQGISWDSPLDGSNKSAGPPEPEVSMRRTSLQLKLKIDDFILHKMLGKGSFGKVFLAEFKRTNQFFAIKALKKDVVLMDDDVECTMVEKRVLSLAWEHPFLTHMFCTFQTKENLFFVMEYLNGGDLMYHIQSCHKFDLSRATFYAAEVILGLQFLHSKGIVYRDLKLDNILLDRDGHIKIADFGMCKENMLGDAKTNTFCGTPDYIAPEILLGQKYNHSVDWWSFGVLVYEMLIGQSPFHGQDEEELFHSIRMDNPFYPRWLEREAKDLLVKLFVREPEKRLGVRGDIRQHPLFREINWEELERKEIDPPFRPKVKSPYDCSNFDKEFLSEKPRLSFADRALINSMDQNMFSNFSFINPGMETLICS

binding: binds
B1: IKKα (enzyme, UniProt Q60680 1-745)
chain: MERPPGLRPGAGGPWEMRERLGTGGFGNVSLYQHRELDLKIAIKSCRLELSSKNRERWCHEIQIMKKLDHANVVKACDVPEELNFLINDVPLLAMEYCSGGDLRKLLNKPENCCGLKESQILSLLSDIGSGIRYLHENKIIHRDLKPENIVLQDVGGKTIHKIIDLGYAKDVDQGSLCTSFVGTLQYLAPELFENKPYTATVDYWSFGTMVFECIAGYRPFLHHLQPFTWHEKIKKKDPKCIFACEEMTGEVRFSSHLPQPNSLCSLIVEPMESWLQLMLNWDPQQRGGPIDLTLKQPRCFALMDHILNLKIVHILNMTSAKIISFLLPCDESLHSLQSRIERETGINTGSQELLSETGISLDPRKPASQCVLDGVRGCDSYMVYLFDKSKTVYEGPFASRSLSDCVNYIVQDSKIQLPIIQLRKVWAEAVHYVSGLKEDYSRLFQGQRAAMLSLLRYNANLTKMKNTLISASQQLKAKLEFFRKSIQLDLERYSEQMTYGISSEKMLKAWKEMEEKAIHYSEVGVIGYLEDQIMSLHTEIMELQKSPYGRRQGDLMESLEQRAIDLYKQLKHRPPDHLYSDSTEMVKIIVHTVQSQDRVLKELFGHLSKLLGCKQKIIDLLPKVEVALSNIKEADNTVMFMQGKRQKEIWHLLKIACTQSSARSLVGSSLEGTVTPPVSAWLPPTLADREHPLTCVVTPQDGETLAQMIEENLNCLGHLSTIIREANEDQSSSLMSLDWSWLAE
